Measured values reported in PubChem BioAssay AID1671190 (National Center for Advancing Translational Sciences (NCATS), 2021).
Where “and” joins values, the source holds several entries; their conditions need not be identical. Identical values can stand only once. In all, about 580,000 compounds went through this assay and about 6,100 (1.1%) were called active. This list was built around the results that the source calls inconclusive (neither active nor inactive); the mix of calls is not that of the screen. Calls come from the whole dose curve; as a rule, active = well fitted inhibition curve with a large enough effect; inconclusive = small, poorly fitted or top-dose-only effect, or another doubt; inactive = no such curve, though single readings can be large or run the other way. Where the call is inconclusive, the potency comes from a doubtful curve fit.

Protein sequences, listed by entry. Tags and fused reporters are not part of them. Lines headed by an entry give the natural chain unless they say otherwise; changes in a name come on top.
UniProt P18054: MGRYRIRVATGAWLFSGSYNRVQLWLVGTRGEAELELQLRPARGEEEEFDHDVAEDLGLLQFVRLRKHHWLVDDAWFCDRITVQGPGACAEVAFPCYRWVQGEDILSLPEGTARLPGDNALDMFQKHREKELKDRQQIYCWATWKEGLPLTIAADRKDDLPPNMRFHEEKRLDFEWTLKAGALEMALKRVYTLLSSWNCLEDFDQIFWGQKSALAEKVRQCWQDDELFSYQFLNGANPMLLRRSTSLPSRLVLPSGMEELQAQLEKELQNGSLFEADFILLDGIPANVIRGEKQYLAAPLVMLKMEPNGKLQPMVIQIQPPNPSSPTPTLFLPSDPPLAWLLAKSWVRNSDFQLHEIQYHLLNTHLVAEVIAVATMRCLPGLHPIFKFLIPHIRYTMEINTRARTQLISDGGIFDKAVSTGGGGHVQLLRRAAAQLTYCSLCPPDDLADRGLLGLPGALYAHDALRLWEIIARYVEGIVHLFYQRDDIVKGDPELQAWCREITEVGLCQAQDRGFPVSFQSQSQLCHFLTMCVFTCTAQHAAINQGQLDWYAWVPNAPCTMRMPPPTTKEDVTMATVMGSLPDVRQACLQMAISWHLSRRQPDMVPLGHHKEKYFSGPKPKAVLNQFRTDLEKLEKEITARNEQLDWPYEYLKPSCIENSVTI

Biological target: Polyunsaturated fatty acid lipoxygenase ALOX12 (Homo sapiens) (UniProt P18054)
Experiment: Primary qHTS assay for inhibitors of human arachidonate 12S-lipoxygenase (ALOX12): Round 2
Details: purified 12hLO, xylenol orange hydroperoxide absorbance; activity change, negative = inhibition: at 108 µM (top of the series) unless noted
Method in brief: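 Hydroperoxide product was detected by ferrous iron/xylenol orange as the 573 to 405 nm absorbance ratio. Arachidonic acid at 40 uM (final) was turned over for 30 min at room temperature by 150 nM human 12hLO, pH 7.0 Hepes buffer, after 15 min compound preincubation.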
% is set by controls: 0 for no effect and ±100 for the full control effect; potency is the fitted concentration of half-maximal effect.

| Compound | Potency | activity change, negative = inhibition |
| --- | --- | --- |
| COc1ccc(NC(=O)CCc2nc3cc(Cl)ccc3n(CC(C)C)c2=O)cc1 | inconclusive: 126 µM [inhibitor, partial curve, poor fit] | – |
| CCc1ccc(NC(=O)CCNC(=O)Cn2cnc3ccccc3c2=O)cc1 | inconclusive: 5.62 µM [inhibitor, full curve] | – |
| CC(C)(C)C(=O)c1c(N)[nH]c(C(=O)c2ccccc2)c1-c1cc2ccccc2nc1Cl | inconclusive: 50.1 µM [inhibitor, partial curve, poor fit] | – |
| COc1ccc(CNCCS(=O)(=O)NCc2ccc(OC)cc2)cc1 | inconclusive: 31.6 µM [inhibitor, single point] | – |
| COc1ccc(C(=O)CSC2=NS(=O)(=O)c3cc(Cl)ccc3N2)cc1 | inconclusive: 50.1 µM [inhibitor, partial curve, poor fit] | – |
| CCCCn1c(=O)n(CC(=O)NCC(F)(F)F)c(=O)c2c1ncn2Cc1ccco1 | inactive | – |
| CC1CCCC(NC(=O)COC(=O)c2ccc(Br)o2)C1C (stereo not given) | inconclusive: 89.1 µM [inhibitor, single point] | – |
| O=C(Nc1cccc(-n2cccn2)c1)C1CCCN(Cc2cccc(F)c2F)C1 (stereo not given) | inactive | – |
| FC(F)(F)c1ccc(SCc2csc(-c3ncccn3)n2)nc1 | inactive | – |
| CCOc1ccc(C2CCCN2S(=O)(=O)Cc2ccc(F)cc2)cc1 (stereo not given) | inactive | – |
| CC(CCCCCCCCCCCCCO)(C(=O)O)C(=O)O | inconclusive: 39.8 µM [inhibitor, partial curve, poor fit] | – |
| S=C1NC(=S)/C(=C/C=C/c2ccco2)S1 | inconclusive: 5.62 µM [inhibitor, full curve, poor fit] | – |
| O=C(Nc1ccc2c3c(cccc13)CC2)c1ccco1 | inconclusive: 44.7 µM [inhibitor, partial curve, poor fit] | – |
| CN(C)CCNC(=O)COc1cccc2c1OC(C)(C)C2 | inactive | – |
| CC(=O)c1ccccc1NCC(=O)Nc1ccccc1 | inconclusive: 126 µM [inhibitor, single point] | – |
| Cc1ccc(C2CCN(C(=S)NC3CCCCC3)C2)cc1 (stereo not given) | inconclusive: 44.7 µM [inhibitor, partial curve] | – |
| CC(C)n1c(NCCc2ccccc2)nc2c1c(=O)n(C)c(=O)n2C | inconclusive: 63.1 µM [inhibitor, partial curve, poor fit] | – |
| CC(=O)Nc1cccc(C(=O)/C=C/c2ccco2)c1 | inconclusive: 0.282 µM [inhibitor, full curve, poor fit] | – |
| O=C(C1=C(O)C(=O)N(CC2CCCO2)C1c1cccc(O)c1)c1ccco1 (stereo not given) | inconclusive: 56.2 µM [inhibitor, partial curve, poor fit] | – |
| CCCCn1c(=O)c(CCc2ccccc2)nc2c1c(=O)[nH]c(=O)n2Cc1ccccc1 | active: 35.5 µM | – |
| COC(=O)C(NC=O)C12CC3CC(CC(C3)C1)C2 (stereo not given) | inconclusive: 126 µM [inhibitor, single point] | – |
| Cn1c(C(=O)N2CCN(c3ccccc3)CC2)cc2c1CCN(Cc1cccc(F)c1)C2 | inactive | – |

| Compound | Potency | activity change, negative = inhibition |
| --- | --- | --- |
| CCNS(=O)(=O)c1cc(C(=O)NC(C)COC)ccc1OC (stereo not given) | inactive | – |
| O=C(COC(=O)c1n[nH]c(=O)c2ccccc12)Nc1ccccc1 | inconclusive: 70.8 µM [inhibitor, single point] | – |
| Cc1ccc2c(c1)sc1nc(-c3cc4cc(Cl)ccc4oc3=O)cn12 | inconclusive: 126 µM [inhibitor, partial curve, poor fit] | – |
| CNC(=O)CSc1ccccc1OC | inactive | – |
| CCCc1nc2ccc(C)cn2c1Cc1ccc(C)cc1 | inconclusive: 39.8 µM [inhibitor, partial curve, poor fit] | – |
| COc1cc(OC)c2c(C)cc(=O)oc2c1C(CCN1CCOCC1)c1ccc2c(c1)OCO2 (stereo not given) | inconclusive: 15.8 µM [inhibitor, partial curve, poor fit] | – |
| O=C(O)CCCC(=O)c1ccc2c(c1)OCCOCCOCCOCCO2 | inconclusive: 0.141 µM [inhibitor, full curve, poor fit] | – |
| CC1CCN(S(=O)(=O)c2ccc(C(C)C)cc2)CC1 | inconclusive: 89.1 µM [inhibitor, single point] | – |
| O=C(O)[C@H]1C[C@@H](C(=O)NCc2ccncc2)CN(C(=O)C2CC2)C1 | inactive | – |
| COC(=O)/C=C1\SC(=Nc2ccc(Cl)c(Cl)c2)NC1=O | inconclusive: 3.98 µM [inhibitor, full curve, poor fit] | – |
| O=C(O)CN1C(=O)/C(=C\c2cccc(OCc3ccc(F)cc3)c2)SC1=S | active: 50.1 µM | – |
| COc1ccccc1NC(=O)Cn1c(=O)n(-c2cccc(Cl)c2)c(=O)c2sc3ccccc3c21 | inconclusive: 89.1 µM [inhibitor, partial curve, poor fit] | – |
| CCN1C(=O)[C@H]2[C@@H](c3ccc(C)cc3)N[C@]3(CCCN(Cc4ccc(OC)cc4)C3=O)[C@H]2C1=O | inconclusive: 5.01 µM [inhibitor, full curve, poor fit] | – |
| COc1ccc(N(CN2C(=O)C3CCCCC3C2=O)C(=O)c2ccco2)cc1 (stereo not given) | inconclusive: 56.2 µM [inhibitor, partial curve, poor fit] | – |
| CC(=O)c1ccc(-c2cccc(-c3nc4ccccn4c3NC3CCCCC3)c2)cc1 | inconclusive: 39.8 µM [inhibitor, single point] | – |
| Cc1ccc(NC(=O)N2CCCC(c3noc(COc4ccccc4F)n3)C2)c(C)c1 (stereo not given) | inconclusive: 7.94 µM [inhibitor, full curve] | – |
| O=C(Nc1ccon1)[C@@H]1C[C@@H](c2ccc(F)cc2)N([S+](=O)([O-])c2ccccc2)C1 | inconclusive: 79.4 µM [inhibitor, full curve, poor fit] | – |
| O=C(NCCNC[C@@H](O)COc1ccc(O)cc1)N1CCOCC1 | inconclusive: 25.1 µM [inhibitor, single point] | – |
| Cc1ccccc1-c1ccc2ncnc(N3CCNCC3)c2c1 | inconclusive: 39.8 µM [inhibitor, partial curve, poor fit] | – |
| COCc1cccc(C(=O)NCc2ccc(C#N)cc2)c1 | inconclusive: 50.1 µM [inhibitor, partial curve, poor fit] | – |
| O=C(O)c1cc(=O)c2ccccc2[nH]1 | inconclusive: 1.12 µM [inhibitor, full curve, poor fit] | – |
| Cc1cc(C)cc(C(O)c2ncc(-c3ccc(C(F)(F)F)cc3)[nH]2)c1 (stereo not given) | inactive | – |

| Compound | Potency | activity change, negative = inhibition |
| --- | --- | --- |
| O=C(OCc1cccc(Br)c1)c1ccc(O)cc1 | inconclusive: 2.51 µM [inhibitor, full curve, poor fit] | – |
| CCCCNC(=O)C1c2cc(OC)c(OC)cc2C(=O)N(C)C1c1cccs1 (stereo not given) | inactive | – |
| COc1ccccc1-n1c(=O)c2c(n3cnnc13)-c1ccccc1CC21CCCCC1 | inactive | – |
| CCN1CCN(Cc2ccc(NC(=O)c3ccc(C)c(NC(=O)N4CCNC4=O)c3)cc2C(F)(F)F)CC1 | inconclusive: 50.1 µM [inhibitor, partial curve, poor fit] and inconclusive: 15.8 µM [inhibitor, full curve] | – |
| O=C1NCCOCCN(S(=O)(=O)c2ccc3c(c2)CCC3)[C@H]2CCC[C@@H]12 | inconclusive: 79.4 µM [inhibitor, single point] | – |
| Cc1ncc(CO)c(/C=N/NC(=O)c2ccc(O)cc2)c1O | inactive | – |
| CCc1c(C)nc(Nc2nc(C)c3cccc(OC)c3n2)[nH]c1=O | inconclusive: 12.6 µM [inhibitor, partial curve, poor fit] | – |
| O=C(Nc1ccc(Cl)cc1)c1nc2c(o1)CCN(Cc1ccc(F)cc1F)CC2 | inconclusive: 63.1 µM [inhibitor, full curve, poor fit] | – |
| Cc1cc(C)n(CCCNCC(O)c2ccccc2)n1 (stereo not given) | inconclusive: 0.251 µM [inhibitor, full curve, poor fit] | – |
| Cc1cccc(NC(=S)N(Cc2cccs2)Cc2cc3cc(C)ccc3[nH]c2=O)c1 | – | inconclusive: -34.3% [inhibitor] |
| CCc1oc2ccccc2c1C(=O)CCN1CCCCC1 | inconclusive: 63.1 µM [inhibitor, partial curve, poor fit] | – |
| CCC(CO)n1c(SCc2cc(=O)oc3cc(C)ccc23)nc2ccccc2c1=O (stereo not given) | inconclusive: 39.8 µM [inhibitor, partial curve, poor fit] | – |
| COc1cccc(CC(=O)N2CCC(N3C(=O)C(OCC4CC4)C34CCCCC4)CC2)c1 (stereo not given) | inactive | – |
| CCOc1ccc(NC(=O)N2CCc3cc(OC)c(OC)cc3C2CNC(=O)CC)cc1 (stereo not given) | inactive | – |
| CC(NC(=O)CCSc1ccc(Cl)cc1)c1ccccc1 (stereo not given) | inconclusive: 158 µM [inhibitor, partial curve, poor fit] | – |
| Cc1ccc2c(CN(Cc3ccccc3)Cc3ccccc3)cc(=O)oc2c1 | inconclusive: 50.1 µM [inhibitor, partial curve, poor fit] | – |
| Cc1ccc(NC(=O)COC(=O)c2cc(=O)c3ccccc3o2)cc1F | inactive | – |
| CNCCOc1ccccc1C(C)(C)C | inconclusive: 10 µM [inhibitor, full curve] | – |
| CCN1CCC2(CC1)N=C(SCC(=O)Nc1cc(F)ccc1F)C(c1ccc(F)cc1)=N2 | inconclusive: 44.7 µM [inhibitor, full curve, poor fit] | – |
| NC[C@H]1O[C@@H]2C[C@@H](CC(=O)N3CCOCC3)O[C@@H]2[C@@H]1O | inconclusive: 12.6 µM [inhibitor, full curve] | – |
| Cc1ccccc1Nc1nc(N)nc(CSc2nc3ccccc3c(=O)n2C)n1 | inactive | – |
